According to article PMC4890666:
No constants are given. Whether binding was seen depends on the method and setting. Binding seen in cells or lysates may run through a third protein. A result given as binding can be weak or reduced; the word gives no strength. For some assays here: Where a sequence is shown, tags or fusion partners need not be part of it.

Chains of the proteins cited; added tags and fusions are not shown.
UniProt Q04205: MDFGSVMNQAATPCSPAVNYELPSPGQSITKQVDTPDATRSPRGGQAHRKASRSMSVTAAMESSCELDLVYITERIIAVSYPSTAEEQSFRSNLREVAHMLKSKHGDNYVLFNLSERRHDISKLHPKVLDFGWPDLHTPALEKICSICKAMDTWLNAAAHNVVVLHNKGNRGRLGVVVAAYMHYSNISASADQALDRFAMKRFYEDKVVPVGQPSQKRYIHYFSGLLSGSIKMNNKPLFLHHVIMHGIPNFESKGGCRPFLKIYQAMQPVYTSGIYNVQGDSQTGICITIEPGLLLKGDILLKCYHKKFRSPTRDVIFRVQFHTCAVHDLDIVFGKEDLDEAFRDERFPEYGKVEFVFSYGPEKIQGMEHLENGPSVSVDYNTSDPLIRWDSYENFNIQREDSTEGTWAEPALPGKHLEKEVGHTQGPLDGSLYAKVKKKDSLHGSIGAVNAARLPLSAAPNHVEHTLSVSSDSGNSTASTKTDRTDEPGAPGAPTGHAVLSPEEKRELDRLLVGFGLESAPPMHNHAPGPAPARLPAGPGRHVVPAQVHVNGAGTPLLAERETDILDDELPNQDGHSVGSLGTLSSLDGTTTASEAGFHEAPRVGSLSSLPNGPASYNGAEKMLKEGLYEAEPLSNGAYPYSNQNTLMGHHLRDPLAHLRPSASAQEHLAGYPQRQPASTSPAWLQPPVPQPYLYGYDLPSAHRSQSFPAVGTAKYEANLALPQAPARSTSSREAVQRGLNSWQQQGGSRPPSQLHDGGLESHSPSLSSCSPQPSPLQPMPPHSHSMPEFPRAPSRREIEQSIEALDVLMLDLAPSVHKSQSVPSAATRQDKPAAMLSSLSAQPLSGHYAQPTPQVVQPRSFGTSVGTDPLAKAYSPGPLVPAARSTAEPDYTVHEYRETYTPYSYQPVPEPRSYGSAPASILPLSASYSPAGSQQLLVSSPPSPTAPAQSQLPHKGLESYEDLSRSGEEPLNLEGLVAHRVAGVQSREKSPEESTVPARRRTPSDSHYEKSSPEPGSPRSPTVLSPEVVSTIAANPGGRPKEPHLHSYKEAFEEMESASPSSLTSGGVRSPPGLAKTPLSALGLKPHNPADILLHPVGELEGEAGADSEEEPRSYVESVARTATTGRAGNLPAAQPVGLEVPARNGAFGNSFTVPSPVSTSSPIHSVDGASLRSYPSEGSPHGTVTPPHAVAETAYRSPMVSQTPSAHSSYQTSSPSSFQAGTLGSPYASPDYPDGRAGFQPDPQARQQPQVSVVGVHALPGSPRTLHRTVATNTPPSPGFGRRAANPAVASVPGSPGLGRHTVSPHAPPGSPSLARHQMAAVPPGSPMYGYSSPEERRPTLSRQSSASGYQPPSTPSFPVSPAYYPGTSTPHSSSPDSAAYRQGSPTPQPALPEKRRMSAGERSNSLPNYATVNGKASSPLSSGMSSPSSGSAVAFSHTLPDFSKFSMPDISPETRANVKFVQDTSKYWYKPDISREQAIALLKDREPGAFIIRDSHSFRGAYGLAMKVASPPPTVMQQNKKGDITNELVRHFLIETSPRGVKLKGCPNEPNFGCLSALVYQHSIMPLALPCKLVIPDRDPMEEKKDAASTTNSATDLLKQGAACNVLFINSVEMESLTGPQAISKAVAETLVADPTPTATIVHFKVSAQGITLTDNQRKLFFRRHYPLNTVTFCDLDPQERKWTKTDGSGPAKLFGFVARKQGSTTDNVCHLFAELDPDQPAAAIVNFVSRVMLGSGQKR

Columns and labels:
[1] = target: FLAG-tagged Cas15YF (phosphorylation-defective mutant of Cas) (UniProt Q61140); assay: co-IP; anti-FLAG (M2) Affinity Gel on lysates of HEK293T cells co-transfected 24 h with FLAG-Cas variants and Cerulean-tensin 1 variants; anti-GFP blot detects Cerulean
[2] = target: T1, FLAG-tagged wild-type Cas (p130Cas, Crk-associated substrate) (UniProt Q61140); assay: as above
T1 sequence: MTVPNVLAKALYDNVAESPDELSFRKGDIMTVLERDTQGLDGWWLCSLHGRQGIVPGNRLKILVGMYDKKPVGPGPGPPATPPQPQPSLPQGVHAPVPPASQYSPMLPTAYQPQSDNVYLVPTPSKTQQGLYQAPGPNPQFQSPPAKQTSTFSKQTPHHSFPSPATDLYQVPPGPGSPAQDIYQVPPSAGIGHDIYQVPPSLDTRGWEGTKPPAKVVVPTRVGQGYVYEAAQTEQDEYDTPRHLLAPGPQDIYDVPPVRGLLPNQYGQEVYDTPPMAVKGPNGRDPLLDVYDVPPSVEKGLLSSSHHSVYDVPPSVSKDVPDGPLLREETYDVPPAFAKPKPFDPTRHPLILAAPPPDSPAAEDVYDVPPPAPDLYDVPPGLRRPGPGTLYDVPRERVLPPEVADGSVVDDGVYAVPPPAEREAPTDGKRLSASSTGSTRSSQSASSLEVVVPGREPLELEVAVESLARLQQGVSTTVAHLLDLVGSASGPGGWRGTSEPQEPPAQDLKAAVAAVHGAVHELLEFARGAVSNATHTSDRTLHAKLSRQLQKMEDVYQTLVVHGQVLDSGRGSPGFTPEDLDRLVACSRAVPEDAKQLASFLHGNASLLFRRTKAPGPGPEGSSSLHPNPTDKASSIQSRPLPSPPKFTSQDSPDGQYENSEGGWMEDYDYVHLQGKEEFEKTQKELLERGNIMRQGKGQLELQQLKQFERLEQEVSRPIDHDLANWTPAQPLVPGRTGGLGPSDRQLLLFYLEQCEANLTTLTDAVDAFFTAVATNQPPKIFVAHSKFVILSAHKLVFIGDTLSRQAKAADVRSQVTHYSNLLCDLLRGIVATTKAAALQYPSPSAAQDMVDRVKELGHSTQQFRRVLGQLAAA

Row | binding [1] | binding [2] | Substance
1 | binds weakly | – | Cerulean-tagged tensin 1 (full-length) (from UniProt Q04205 1-1744)
2 | – | binds weakly | Cerulean-tensin 1-ΔSH2PTB (chicken) (domain or fragment)
